Data on 7 molecules can be found in paper PMC3422340.

Assay [1] has as its target T1, LexA-S1CD fusion protein (syndecan-1 cytoplasmic domain bait) (mouse) (UniProt P18828).
T1 sequence: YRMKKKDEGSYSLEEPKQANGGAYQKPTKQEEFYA
In words: two-hybrid; LexA bait fusions (pBTM116) and VP16 prey fusions (pVP16) in S. cerevisiae L40; β-galactosidase activity as reporter (histidine prototrophy too in the screen).

Assay [2] concerns the target T2, LexA-Sdc-4 cytoplasmic domain (S4CD) (UniProt P34901).
T2 sequence: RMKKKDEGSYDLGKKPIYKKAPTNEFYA
The description is as above.

In assay [3] the target is T3, LexA-Sdc-3 cytoplasmic domain (S3CD) (UniProt P33671).
T3 sequence: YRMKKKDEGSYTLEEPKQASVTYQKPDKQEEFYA
The description is as above.

For assay [4], the target named is glutathione S-transferase (GST) alone. Put plainly: pull-down; GST or GST-S1CD adsorbed to glutathione-agarose, incubated 2 hours at 4°C with triple detergent extracts of 3T3 cells that overexpress Topors, diluted in NET-BSA; eluted with glutathione; western blot with chicken anti-Topors; only the target purified.

Results are given in words; binding and its absence hold for the method and conditions named. For part of these data: A result given as binding can be weak or reduced; the word gives no strength. For part of these data: Where a sequence is shown, tags or fusion partners need not be part of it. For part of these data: Binding seen in cells or lysates may run through a third protein.

As for “VP16-Topors 398–516 deletion mutant Δ454–516 (mouse) (domain or fragment)”, the binding entry in assay [1] is “no binding”.
As to “VP16-Topors 398–516 deletion mutant Δ493–510 (mouse) (domain or fragment)”, the binding entry in assay [1] was “no binding”.
The same measure, in the same setting: the result for “VP16-Topors 398–516 deletion mutant Δ477–492 (mouse) (domain or fragment)” reads “binds”.
With “VP16-Prey 36 fusion protein (murine Topors 398-516) (mouse) (domain or fragment)”, the binding result in assay [2] was “no binding”; in assay [1], “binds”; in assay [3], “binds weakly”.
Turning to “VP16-Topors 398–516 deletion mutant Δ423–440 (mouse) (domain or fragment)”, the binding result in assay [1] is “binds”.
For “VP16-Topors 398–516 deletion mutant Δ441–457 (mouse) (domain or fragment)”, the binding result in assay [1] is given as “binds”.

B1: carboxyl-terminal c-Myc epitope-tagged murine Topors overexpressed in 3T3 cells (protein, UniProt Q80Z37 1-1016)
chain: MGSQPPPPGSPLSREEGEAPPLVPAEEGRRRSRRVRLRGSCRHRPSLLSRRELASNGPAVPATASSEIMASAAKEFKMDNFSPKAGTSKLQQTVPADASPDSKCPICLDRFDNVSYLDRCLHKFCFRCVQEWSKNKAECPLCKQPFDSIFHSVRAEDDFKEYVLRPSYNGSFTNPEVRRFRYRTTMTRERSASLYSPSSTVSRRTTTPPDSGVLFEGLGISTRPRDVDIPQFMRQMALRGPTTTDERSLRKIQEQDIINFRRTLYRAGVRVRSIEDGGRYRDISAEFFRRNPACLHRLVPWLKRELTVLFGAHGSLVNIVQHIIMSNVTRYDLESQAFVSDLRPFLLNRTEHFIHEFISFARSPFNMAAFDQHANYDCPPSSEEGSRSDSSVITISPDEAETQELDMNASTVRQAPWDDETPGPSYSSSEQVHVGVSSLLNSSDSSDEELVSGGTTSQIQGVQTNDDVNNDSDSSSDNCVIVGFVKPLAERTPELVELSSDSEELGPYEKVETVKTQEQEQSYSSGDSDVSRASSPRSVLGKDEQMSKSHCDSDTRISSKKEEKRSTSLPAPRDSSSTRGDRVCSPYNHRHRKGGRSRSSDSRSQSRSGHDPRNHRKHGKKRLRNKRSRSRESSSRPRARKDKKRSRTRDSSWSRRSQTLSLSSGSTSRSRSRSSDHGKRRSRSRNRDRYYLRNNYGSKYKWEYTYYSRNKDRDGYESSYRRRTLSRAHYSRQSSSPEFRIQSFSERTNARKKNHSERKYYYYERRRSRSVSSNRSRTTSAGPDRVRNEKPGGKRKYKTRHLEGTSEEAQPAREFTSKGKDSHYQKSKLDGSYKNESDSFSDSRSSDRETKHKRRRRRTRSLSVEIVYEGKATDTSKHHKKKKKKHKKKHKKHHGDNTSRSPVVITIDSDSDGESEVKAGIECSNGSLPQPIQDGAFETKDVVTIEDELGVLDKDCDVTALADDLSTSQTVENCDSPAVPVEQTLDVREESTFASDLESQSSNVSIQAEPSRPVPS
With B1, the binding entry in assay [4] was “no binding”.
